In article PMC8179002 (Chemical Science, 2020):
Strings that start with PEPTIDE1 are HELM notation: dots part the residues, brackets hold end groups and non-standard residues.

Experiment: general procedure: solution-phase peptide synthesis; EDCI, DMAP
Details: late stage modification step

Substance: PEPTIDE1{C.G.C.E}$PEPTIDE1,PEPTIDE1,1:R3-3:R3$$$V2.0
- step yield: 92%
